Measured values from PMC7819943, “Rice protein-binding microarrays: a tool to detect cis-acting elements near promoter regions in rice”.
This is one part of the list.

Protein sequences, listed by entry. Tags and fused reporters are not part of them.
UniProt Q0JBA9, entry or part of it: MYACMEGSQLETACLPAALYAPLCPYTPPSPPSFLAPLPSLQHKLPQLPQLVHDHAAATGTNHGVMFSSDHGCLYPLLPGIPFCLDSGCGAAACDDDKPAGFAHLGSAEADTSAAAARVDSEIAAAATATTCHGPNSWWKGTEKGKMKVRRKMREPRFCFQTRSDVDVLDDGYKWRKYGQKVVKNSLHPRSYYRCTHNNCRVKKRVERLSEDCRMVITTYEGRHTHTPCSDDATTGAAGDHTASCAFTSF

The sequences below were run against OsWRKY34 (Oryza sativa, UniProt Q0JBA9 1-250) (assay: protein-binding microarray (RPBM); PBS, 2% BSA, 51.3 ng/ul salmon testes DNA, 50 uM zinc acetate, 200 nM TF, 25 C, 1 h; high values mean tight binding). Details: protein: recombinant; tags: N-terminal polyhistidine and DsRed monomer fusion (pET32a); label: CyDye5-dUTP incorporated in the synthesized complementary strand; 3' TTTTT single-stranded linker to array surface; dsDNA, one strand shown.
Method in brief: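 Transcription factors were each fused at the N-terminus to a polyhistidine tag plus DsRed and expressed in E. coli BL21-CodonPlus before Ni–NTA purification. Binding to a double-stranded custom Agilent array was carried out with 200 nM protein at 25 °C for 1 h in PBS, 2% BSA, salmon testes DNA and 50 µM zinc acetate. The binding signal is per-feature fluorescence intensity, in arbitrary units, on an Axon 4000B scanner.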

| Sequence | binding signal |
| --- | --- |
| GCGGTCGCTATTCCTACTGCAGGTGATCCCAATCCGTTGACGGAGTCACCTAGTGCAG | 8340 fluorescence intensity (a.u.) |
| CCTGTTAAAAATCACTCGCATATCTAATTATTTGGCGGATCGGAGTCACCTAGTGCAG | 8760 fluorescence intensity (a.u.) |
| TGTGCTTTACTTGTGCTATCCTGATGTGATGACGCCATTTCGGAGTCACCTAGTGCAG | 8670 fluorescence intensity (a.u.) |
| GATTTTTTTTCCCTTTCAATACCGGTCCCTTTGTCAGTTACGGAGTCACCTAGTGCAG | 12200 fluorescence intensity (a.u.) |
| GCAACTGCTGGCCATCGGCCCATATGCATGCAGCCCACACCGGAGTCACCTAGTGCAG | 8760 fluorescence intensity (a.u.) |
| TTCATTCGCTCGCGCCGTCTCCGAAACCGAATCCATTTCCCGGAGTCACCTAGTGCAG | 8030 fluorescence intensity (a.u.) |
| TGGCAAAGAATTTGTATGCTGCTCTGATTGCTCTGACCCACGGAGTCACCTAGTGCAG | 8680 fluorescence intensity (a.u.) |
| AATCAGACTGCGCATCGCATTATACTCGGACGACTTACAACGGAGTCACCTAGTGCAG | 8180 fluorescence intensity (a.u.) |
| TGCTCCGACCACTGCCCACCCCGCTCCACCGGCTAGAGAGCGGAGTCACCTAGTGCAG | 9120 fluorescence intensity (a.u.) |
| TTGTTACCTAGACTCTCGTTGTAATATACAGATTTATGTCCGGAGTCACCTAGTGCAG | 8790 fluorescence intensity (a.u.) |
| GCTCTTTTCATAAAAATCTACTACTATCATATTTTTTAATCGGAGTCACCTAGTGCAG | 8030 fluorescence intensity (a.u.) |
| TTTTTCACGGGGATGGGTCGGGGATTGTTGACTGATAAAGCGGAGTCACCTAGTGCAG | 21700 fluorescence intensity (a.u.) |
| TTATACTCATGGTGAAAGTCCTATGTTTTGATCTATTCCTCGGAGTCACCTAGTGCAG | 9400 fluorescence intensity (a.u.) |
| ACCCAACTGTTCCGCGTATTGCTTTCTTCTTCTCCAAGAACGGAGTCACCTAGTGCAG | 14700 fluorescence intensity (a.u.) |
| CCACGATCACATTCACCTCCCATCCCACGACGTTGCTCTCCGGAGTCACCTAGTGCAG | 8850 fluorescence intensity (a.u.) |
| CAGTACGATCGCAATCGATTCTTCCATCATTATAGATACTCGGAGTCACCTAGTGCAG | 8250 fluorescence intensity (a.u.) |
| AGATTATTTGCCTGTCTCTAGTTTCCTGATGAACCTAATACGGAGTCACCTAGTGCAG | 8750 fluorescence intensity (a.u.) |
| TTGCTGGAGCTTATTGGTTTCTTAGCCAGCGTTTCTAGTTCGGAGTCACCTAGTGCAG | 8660 fluorescence intensity (a.u.) |
| CTCTGTAGTTTATTTCGTAATAACAACTTTACTTTATTTTCGGAGTCACCTAGTGCAG | 8910 fluorescence intensity (a.u.) |
| TTATTTATTTCCAACTCAAGTTGCGGCCCATGTTAGCATGCGGAGTCACCTAGTGCAG | 8610 fluorescence intensity (a.u.) |
| GTGGGTTTGATCTATTTGGTTCCTATCTTCCATCTTCTTCCGGAGTCACCTAGTGCAG | 10800 fluorescence intensity (a.u.) |
| ACGCCGCCGCCGCCACCGCCACCGTCGCCGCCGCGCGTCCCGGAGTCACCTAGTGCAG | 8400 fluorescence intensity (a.u.) |
| CGGGGTCGTCGAGTCGTGCAGGGGACTCGTTGCGGTTGGGCGGAGTCACCTAGTGCAG | 9260 fluorescence intensity (a.u.) |
| GATCTTTCTGTTGACCAATTGTGCGAACAAAAGATATATTCGGAGTCACCTAGTGCAG | 8670 fluorescence intensity (a.u.) |
| TTTATAGTTTGGTGATCTTCCATTTTAAATTTGTAGTTCTCGGAGTCACCTAGTGCAG | 8320 fluorescence intensity (a.u.) |
| CACCCTAACAGGCACACCTACAAGATTACTTCCTCTGCTTCGGAGTCACCTAGTGCAG | 9030 fluorescence intensity (a.u.) |
| TCCATTTGACGCAACCAAACTATTGTCTTTTCCGATATTCCGGAGTCACCTAGTGCAG | 8450 fluorescence intensity (a.u.) |

| Sequence | binding signal |
| --- | --- |
| GGATTTTGAGTTTTTGTTTAGATTGTTTGACCACTCGTCTCGGAGTCACCTAGTGCAG | 8020 fluorescence intensity (a.u.) |
| GAATCCGAATCCATACTTGCCCGCCCTGCCCTTTTTTCTTCGGAGTCACCTAGTGCAG | 12900 fluorescence intensity (a.u.) |
| CCCCTTTCCTACGAACTCTCCTGTCGTTCTACGGTTCTCCCGGAGTCACCTAGTGCAG | 9500 fluorescence intensity (a.u.) |
| CAACTTCTGAGCTCAACCTACATCCCATTCTCCGCTACTTCGGAGTCACCTAGTGCAG | 9160 fluorescence intensity (a.u.) |
| AAAAACGAGCTAAAAAACATTCAGAGGGGTCTATTTGTCTCGGAGTCACCTAGTGCAG | 9890 fluorescence intensity (a.u.) |
| TTTGGTTGTCACATCGGACGTCGAAAGGAGCTTTTGGACACGGAGTCACCTAGTGCAG | 8350 fluorescence intensity (a.u.) |
| TATCCGACCTGCCTCATCTGCCAATCATTGCATTCCATATCGGAGTCACCTAGTGCAG | 10200 fluorescence intensity (a.u.) |
| TCTCTCCCGTTCCATGTCCGCTCAACCTTGCTTCCATTCTCGGAGTCACCTAGTGCAG | 13400 fluorescence intensity (a.u.) |
| AGAGAGAGAGAGCCACTTGCGTGCTGGCCTCTCTCACTGTCGGAGTCACCTAGTGCAG | 8780 fluorescence intensity (a.u.) |
| CTATTGGGTTTGTTCGCTGCAGCTAAATTGCAGCTGCTGTCGGAGTCACCTAGTGCAG | 9830 fluorescence intensity (a.u.) |
| TCAGTCGCTTCCTCTCTTTATTATCACAGATTCACAGTCCCGGAGTCACCTAGTGCAG | 8370 fluorescence intensity (a.u.) |
| GTAGGAGGGTGGTTGGTTGTAGAATGGGAAGAAATTTGAACGGAGTCACCTAGTGCAG | 11100 fluorescence intensity (a.u.) |
| GCGACGTTGACCTCTGCGAGCCCATGACATGGCACCATTACGGAGTCACCTAGTGCAG | 10400 fluorescence intensity (a.u.) |
| TCCAATTTCAACTTCCAAGTTCTGTACTCCCAACCTTTTCCGGAGTCACCTAGTGCAG | 10300 fluorescence intensity (a.u.) |
| TTTGCAACAAAAAGAAGTGCTTACGCTGTCACTTGCTCACCGGAGTCACCTAGTGCAG | 8120 fluorescence intensity (a.u.) |
| CACGGCGGCGGATGGGGAAGGGGTGGGGCAGGACAGGAGGCGGAGTCACCTAGTGCAG | 14100 fluorescence intensity (a.u.) |
| AATTGGATCGTCACTGGTTAACCCTAAACCTACCGTTTTTCGGAGTCACCTAGTGCAG | 9770 fluorescence intensity (a.u.) |
| ATTCTTTGCTAGGTATATACATCTGCAGTGCGTTCGCAAACGGAGTCACCTAGTGCAG | 8180 fluorescence intensity (a.u.) |
| TTCCTAGCTTTTAAGTTTGACCAAATCTCTATTATTATAACGGAGTCACCTAGTGCAG | 8350 fluorescence intensity (a.u.) |
| ACTCCGGATCTCTGCGCCACACCACTCATCAGCTCGCTCTCGGAGTCACCTAGTGCAG | 11900 fluorescence intensity (a.u.) |
| CACCAACTCATTCTTACACCTACACCTACGTATTCATTCACGGAGTCACCTAGTGCAG | 8130 fluorescence intensity (a.u.) |
| CCCTACTGATCAGATTATCATGGCACACTTTAGCTCATTGCGGAGTCACCTAGTGCAG | 9340 fluorescence intensity (a.u.) |
| TGTTGTATGGGTTGTTCGGGCTCTAATAAAGAAACTAATTCGGAGTCACCTAGTGCAG | 9090 fluorescence intensity (a.u.) |
| TTTTTTCTTTACTTTGCGCCCGGCCATTGTAAGGTCCGCACGGAGTCACCTAGTGCAG | 8760 fluorescence intensity (a.u.) |
| TTTTCAGCTGTCGCTTCATACCAGGGTTAAATCTCGCGGTCGGAGTCACCTAGTGCAG | 9510 fluorescence intensity (a.u.) |
| TTAATATTTTATGCGTGACTTGTCTTTTTAATTTTTTTCACGGAGTCACCTAGTGCAG | 11900 fluorescence intensity (a.u.) |
| CAACTGAACTTTCATCCTTTCGTTCCTACAGTTCGTCAGTCGGAGTCACCTAGTGCAG | 14200 fluorescence intensity (a.u.) |

Shown with bars between the fields: part of the list above.
Sequence | binding signal
GATTTTTTTTCCCTTTCAATACCGGTCCCTTTGTCAGTTACGGAGTCACCTAGTGCAG | 12200 fluorescence intensity (a.u.)
GCAACTGCTGGCCATCGGCCCATATGCATGCAGCCCACACCGGAGTCACCTAGTGCAG | 8760 fluorescence intensity (a.u.)
TTCATTCGCTCGCGCCGTCTCCGAAACCGAATCCATTTCCCGGAGTCACCTAGTGCAG | 8030 fluorescence intensity (a.u.)
TGGCAAAGAATTTGTATGCTGCTCTGATTGCTCTGACCCACGGAGTCACCTAGTGCAG | 8680 fluorescence intensity (a.u.)
AATCAGACTGCGCATCGCATTATACTCGGACGACTTACAACGGAGTCACCTAGTGCAG | 8180 fluorescence intensity (a.u.)
TGCTCCGACCACTGCCCACCCCGCTCCACCGGCTAGAGAGCGGAGTCACCTAGTGCAG | 9120 fluorescence intensity (a.u.)
TTGTTACCTAGACTCTCGTTGTAATATACAGATTTATGTCCGGAGTCACCTAGTGCAG | 8790 fluorescence intensity (a.u.)
GCTCTTTTCATAAAAATCTACTACTATCATATTTTTTAATCGGAGTCACCTAGTGCAG | 8030 fluorescence intensity (a.u.)
TTTTTCACGGGGATGGGTCGGGGATTGTTGACTGATAAAGCGGAGTCACCTAGTGCAG | 21700 fluorescence intensity (a.u.)
TTATACTCATGGTGAAAGTCCTATGTTTTGATCTATTCCTCGGAGTCACCTAGTGCAG | 9400 fluorescence intensity (a.u.)
ACCCAACTGTTCCGCGTATTGCTTTCTTCTTCTCCAAGAACGGAGTCACCTAGTGCAG | 14700 fluorescence intensity (a.u.)
CCACGATCACATTCACCTCCCATCCCACGACGTTGCTCTCCGGAGTCACCTAGTGCAG | 8850 fluorescence intensity (a.u.)
CAGTACGATCGCAATCGATTCTTCCATCATTATAGATACTCGGAGTCACCTAGTGCAG | 8250 fluorescence intensity (a.u.)
